Construct, isoform or probe ends are uncertain for at least one entry. For part of these data: The comparison behind a weaker result is the experiment's own reference, which may not be listed here. Tags and fusion partners may be left off the protein sequences shown. For part of these data: At least one verdict rests on a figure or table, not on a statement of the authors.
How the values were obtained:
[1] = target: T1, MftR WT (Mycobacterium smegmatis mc2155) (UniProt A0QSB5); assay: EMSA; settings: EMSA: 50 mM Hepes, 50 mM NaCl, 0.1 mM EDTA, pH 7.5, room temperature 10 min, 5% PAGE in 1x TBE on ice, recombinant protein, protein details: His-tag (pET-28a, NdeI/XhoI), label: 6-FAM
T1 sequence (looked up, limits assumed): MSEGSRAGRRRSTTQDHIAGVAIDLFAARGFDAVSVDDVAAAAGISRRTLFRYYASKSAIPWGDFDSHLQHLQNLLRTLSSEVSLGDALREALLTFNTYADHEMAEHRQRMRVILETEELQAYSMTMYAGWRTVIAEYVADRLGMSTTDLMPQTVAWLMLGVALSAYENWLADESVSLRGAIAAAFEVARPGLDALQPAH

[2] = target: T1, MftR WT (Mycobacterium smegmatis mc2155); assay: competition with a labelled probe; settings: 4 uM cold probe, 2 uM MftR, 20 nM FAM-Omft; EMSA: 50 mM Hepes, 50 mM NaCl, 0.1 mM EDTA, pH 7.5, room temperature 10 min, 5% PAGE in 1x TBE on ice; recombinant protein; protein details: His-tag (pET-28a, NdeI/XhoI)

Row | Sequence | binding result ([1]; 100 uM myristoyl-CoA) | binding result ([1]; 100 uM oleoyl-CoA) | binding result [2]
1 | TCCATTCTGGCACTCGATGCCATATAT (double strand) [FAM-Omft] | binds more weakly | binds more weakly | –
2 | TCCATTCTGGCACTCGATGCCATATAT (double strand) [cold Omft] | – | – | binds

Source: paper PMC8728441, “Biosynthesis of the redox cofactor mycofactocin is controlled by the transcriptional regulator MftR and induced by long-chain acyl-CoA species” (The Journal of Biological Chemistry, 2021)
